According to paper PMC8113726:
These are yes or no findings as the source states them, for the method shown. Binding seen in cells or lysates may run through a third protein. Binding calls can cover weak binding; strength is not graded here.

Target: glutathione S-transferase (GST)-fused Xenopus ADF/cofilin (XAC) (Xenopus)
Assay: pull-down; GST-fused XAC immobilised on an affinity column; Xenopus laevis oocyte extracts applied; bound proteins eluted with 1 M NaCl, 2 mM MgCl2, 1 mM DTT, 20 mM HEPES-KOH pH 7.2; SDS-PAGE, Coomassie, bands identified by peptide sequencing; only the target purified

- binding: binds
B1: gelsolin (Xenopus laevis oocyte) (protein, UniProt P14885 1-417)
chain: FISKMGYPKQTQVQVLPESGETPLFKQFFKNWRDKEATDGMGVAYVPNHIAKIENVPFDVTVLHESPAMAAQHGMVDDGSGKKQIWRIENCEKVPVLESHYGQFYGGDSYIILYHYKSGGKQGQIIYTWQGDDSTKDEITASAILSAQLDEELGGGPVQVRVVQGKEPAHLISLFGGKPMIIYKGGTSREGGQTKDANVRLFQVRTSSSGFSRAVEVDNTASNLNSNDAFVLTTPSASYLWVGQGSTNVEKNGAKELLKILGVSASEIPEGQETDDFWGALGGKADYRTSARLKDKLNAHPPRLFACSNKTGRFIIEEVPGEISQDDLATDDVMLLDTWDQVYVWVGNEAQEDEKKEAIASAYKYIESDPANRDKRTPVAITKQGFEPPTFIGWFLGWEADYWDVDPLERAMAGLSS
